# Measurements published in the supplement of paper PMC12819154, “High-throughput peptide-centric local stability assay extends protein–ligand identification to membrane proteins, tissues and bacteria” (Nature Structural & Molecular Biology, 2025).
# By UniProt entry, the sequences of proteins in these tests, tags left out. Where a name states a change or a piece, a line headed by the entry shows the natural chain unless it says otherwise.
# UniProt Q9D787: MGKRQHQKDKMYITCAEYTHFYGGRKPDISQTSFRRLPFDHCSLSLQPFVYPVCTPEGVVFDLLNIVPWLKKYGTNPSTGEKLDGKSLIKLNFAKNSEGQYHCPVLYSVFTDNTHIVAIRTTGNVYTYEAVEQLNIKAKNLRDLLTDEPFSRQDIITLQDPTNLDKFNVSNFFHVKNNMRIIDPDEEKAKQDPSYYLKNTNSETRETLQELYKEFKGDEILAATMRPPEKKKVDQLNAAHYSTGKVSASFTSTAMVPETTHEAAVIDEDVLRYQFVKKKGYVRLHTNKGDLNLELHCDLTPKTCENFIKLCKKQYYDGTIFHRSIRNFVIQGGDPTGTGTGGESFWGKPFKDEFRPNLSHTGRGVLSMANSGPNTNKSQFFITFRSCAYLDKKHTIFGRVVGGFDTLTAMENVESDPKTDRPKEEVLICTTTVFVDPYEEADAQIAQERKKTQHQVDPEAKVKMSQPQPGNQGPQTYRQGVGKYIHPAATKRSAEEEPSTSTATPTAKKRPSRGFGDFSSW
# UniProt Q9D7A6: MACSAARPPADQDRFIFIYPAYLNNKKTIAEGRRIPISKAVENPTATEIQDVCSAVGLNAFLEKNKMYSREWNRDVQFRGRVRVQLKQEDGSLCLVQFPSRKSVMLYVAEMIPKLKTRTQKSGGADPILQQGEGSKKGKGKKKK
# UniProt Q9D6Z0: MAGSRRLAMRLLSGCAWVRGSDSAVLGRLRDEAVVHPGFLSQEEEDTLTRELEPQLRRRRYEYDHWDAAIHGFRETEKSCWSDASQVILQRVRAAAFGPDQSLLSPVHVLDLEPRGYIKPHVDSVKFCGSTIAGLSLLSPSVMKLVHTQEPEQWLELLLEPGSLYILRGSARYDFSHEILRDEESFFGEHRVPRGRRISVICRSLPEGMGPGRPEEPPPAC
# UniProt Q9D735: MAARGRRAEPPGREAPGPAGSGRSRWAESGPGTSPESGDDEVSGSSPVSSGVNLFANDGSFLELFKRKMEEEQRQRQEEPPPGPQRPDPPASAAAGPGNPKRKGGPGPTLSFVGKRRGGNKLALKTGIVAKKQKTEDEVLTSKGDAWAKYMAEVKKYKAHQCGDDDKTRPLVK
# UniProt Q9D6T1: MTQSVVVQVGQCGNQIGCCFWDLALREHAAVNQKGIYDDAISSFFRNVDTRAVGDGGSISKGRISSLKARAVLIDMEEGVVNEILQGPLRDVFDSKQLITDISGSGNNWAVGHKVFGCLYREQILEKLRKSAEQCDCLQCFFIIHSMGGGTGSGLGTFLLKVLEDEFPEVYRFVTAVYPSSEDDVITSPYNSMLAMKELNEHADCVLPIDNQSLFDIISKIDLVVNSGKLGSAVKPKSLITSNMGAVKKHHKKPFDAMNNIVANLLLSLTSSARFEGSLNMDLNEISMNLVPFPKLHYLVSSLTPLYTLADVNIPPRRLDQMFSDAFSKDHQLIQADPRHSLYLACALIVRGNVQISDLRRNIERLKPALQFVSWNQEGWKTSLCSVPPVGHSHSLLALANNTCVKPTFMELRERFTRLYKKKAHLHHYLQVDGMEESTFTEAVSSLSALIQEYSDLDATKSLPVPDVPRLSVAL
# UniProt Q9D554: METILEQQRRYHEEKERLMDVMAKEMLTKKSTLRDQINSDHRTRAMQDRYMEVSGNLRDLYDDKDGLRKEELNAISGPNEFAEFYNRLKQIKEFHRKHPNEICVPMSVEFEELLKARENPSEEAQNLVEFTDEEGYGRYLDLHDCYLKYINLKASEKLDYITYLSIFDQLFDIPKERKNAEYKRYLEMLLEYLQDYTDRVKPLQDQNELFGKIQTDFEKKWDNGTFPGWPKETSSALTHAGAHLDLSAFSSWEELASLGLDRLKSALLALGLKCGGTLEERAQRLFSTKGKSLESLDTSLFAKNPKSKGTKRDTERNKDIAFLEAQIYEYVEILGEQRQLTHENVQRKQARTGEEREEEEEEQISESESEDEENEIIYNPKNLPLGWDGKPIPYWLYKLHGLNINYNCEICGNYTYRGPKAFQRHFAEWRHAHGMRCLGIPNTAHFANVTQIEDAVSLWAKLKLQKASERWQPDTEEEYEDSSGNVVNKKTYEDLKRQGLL
# UniProt Q9D1G2: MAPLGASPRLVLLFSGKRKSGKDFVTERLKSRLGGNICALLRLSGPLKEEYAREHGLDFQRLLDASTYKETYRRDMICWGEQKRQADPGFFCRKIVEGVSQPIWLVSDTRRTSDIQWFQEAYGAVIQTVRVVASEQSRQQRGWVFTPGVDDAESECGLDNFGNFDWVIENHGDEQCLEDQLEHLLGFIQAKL
# UniProt Q9D7E4: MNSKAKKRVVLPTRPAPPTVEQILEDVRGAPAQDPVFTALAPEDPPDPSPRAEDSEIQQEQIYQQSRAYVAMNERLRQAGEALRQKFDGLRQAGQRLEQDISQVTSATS
# UniProt Q9D8N0, whole entry: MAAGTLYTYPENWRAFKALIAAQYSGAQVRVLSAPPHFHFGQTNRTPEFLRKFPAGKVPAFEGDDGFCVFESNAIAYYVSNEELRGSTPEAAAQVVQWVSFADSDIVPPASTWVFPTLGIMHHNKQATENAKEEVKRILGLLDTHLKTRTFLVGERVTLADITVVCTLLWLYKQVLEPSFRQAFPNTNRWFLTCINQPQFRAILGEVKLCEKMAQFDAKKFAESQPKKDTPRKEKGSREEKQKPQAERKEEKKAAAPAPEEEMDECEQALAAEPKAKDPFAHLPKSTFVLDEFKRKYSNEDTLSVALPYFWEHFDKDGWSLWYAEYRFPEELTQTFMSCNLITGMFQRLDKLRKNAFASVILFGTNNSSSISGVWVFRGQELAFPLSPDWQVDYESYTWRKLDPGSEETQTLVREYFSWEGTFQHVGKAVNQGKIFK
# UniProt Q9D3R9: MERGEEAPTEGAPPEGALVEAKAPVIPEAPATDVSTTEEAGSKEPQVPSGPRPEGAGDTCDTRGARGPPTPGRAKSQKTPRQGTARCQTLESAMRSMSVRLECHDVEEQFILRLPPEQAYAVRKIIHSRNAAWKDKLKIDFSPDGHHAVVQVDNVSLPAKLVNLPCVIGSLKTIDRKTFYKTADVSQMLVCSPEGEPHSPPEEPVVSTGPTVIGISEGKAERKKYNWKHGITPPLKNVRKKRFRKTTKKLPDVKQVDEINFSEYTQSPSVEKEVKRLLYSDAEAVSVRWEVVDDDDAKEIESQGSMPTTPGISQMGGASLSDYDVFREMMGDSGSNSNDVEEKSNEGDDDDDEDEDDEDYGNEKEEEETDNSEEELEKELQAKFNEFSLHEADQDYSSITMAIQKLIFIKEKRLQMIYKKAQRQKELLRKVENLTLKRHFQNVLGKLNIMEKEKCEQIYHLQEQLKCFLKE
# UniProt Q9D650: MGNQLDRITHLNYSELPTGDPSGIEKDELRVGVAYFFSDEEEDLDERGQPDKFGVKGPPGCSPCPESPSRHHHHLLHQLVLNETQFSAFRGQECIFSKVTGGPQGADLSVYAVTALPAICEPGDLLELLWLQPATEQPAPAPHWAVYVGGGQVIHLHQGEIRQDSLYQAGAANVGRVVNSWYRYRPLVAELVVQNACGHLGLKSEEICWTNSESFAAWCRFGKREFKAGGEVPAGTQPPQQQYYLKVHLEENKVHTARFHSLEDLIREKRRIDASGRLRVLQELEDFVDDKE
# UniProt Q9D5V6: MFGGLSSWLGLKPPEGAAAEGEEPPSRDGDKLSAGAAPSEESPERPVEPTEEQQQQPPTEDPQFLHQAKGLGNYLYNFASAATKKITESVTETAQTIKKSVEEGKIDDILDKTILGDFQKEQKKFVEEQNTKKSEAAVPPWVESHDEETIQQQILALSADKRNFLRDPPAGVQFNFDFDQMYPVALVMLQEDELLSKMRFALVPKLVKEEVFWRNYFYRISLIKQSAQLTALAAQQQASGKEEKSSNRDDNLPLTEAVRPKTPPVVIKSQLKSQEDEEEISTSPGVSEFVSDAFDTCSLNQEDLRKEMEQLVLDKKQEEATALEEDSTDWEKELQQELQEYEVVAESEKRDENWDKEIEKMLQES
# UniProt Q9D937: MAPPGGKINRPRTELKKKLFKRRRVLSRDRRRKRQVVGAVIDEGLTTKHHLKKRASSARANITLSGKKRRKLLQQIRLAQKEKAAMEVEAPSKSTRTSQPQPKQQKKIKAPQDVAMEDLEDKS
# UniProt Q9D4H4: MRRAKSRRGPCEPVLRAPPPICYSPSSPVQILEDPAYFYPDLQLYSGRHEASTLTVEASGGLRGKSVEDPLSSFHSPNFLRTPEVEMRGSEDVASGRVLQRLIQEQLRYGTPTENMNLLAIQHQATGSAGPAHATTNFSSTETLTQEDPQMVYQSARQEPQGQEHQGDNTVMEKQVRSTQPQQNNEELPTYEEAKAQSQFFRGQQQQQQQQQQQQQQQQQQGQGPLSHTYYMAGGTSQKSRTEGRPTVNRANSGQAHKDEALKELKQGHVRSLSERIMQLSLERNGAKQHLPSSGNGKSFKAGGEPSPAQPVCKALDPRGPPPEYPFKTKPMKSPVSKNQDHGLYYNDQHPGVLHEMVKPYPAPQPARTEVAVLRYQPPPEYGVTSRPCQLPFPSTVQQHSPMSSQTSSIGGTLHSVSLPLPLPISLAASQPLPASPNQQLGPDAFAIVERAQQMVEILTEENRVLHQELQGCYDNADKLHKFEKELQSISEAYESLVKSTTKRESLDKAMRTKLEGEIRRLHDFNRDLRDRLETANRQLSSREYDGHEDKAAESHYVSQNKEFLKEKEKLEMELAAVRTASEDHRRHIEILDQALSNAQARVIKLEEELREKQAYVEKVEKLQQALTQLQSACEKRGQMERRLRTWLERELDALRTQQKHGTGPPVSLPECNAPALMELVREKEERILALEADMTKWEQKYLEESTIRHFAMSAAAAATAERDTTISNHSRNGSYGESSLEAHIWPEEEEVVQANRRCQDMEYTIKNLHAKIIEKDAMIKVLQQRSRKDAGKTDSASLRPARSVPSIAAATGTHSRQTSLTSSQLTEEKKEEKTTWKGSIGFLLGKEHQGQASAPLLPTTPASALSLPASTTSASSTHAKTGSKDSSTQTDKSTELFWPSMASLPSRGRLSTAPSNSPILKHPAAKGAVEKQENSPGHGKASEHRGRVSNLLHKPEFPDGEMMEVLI
# UniProt Q9D1F5: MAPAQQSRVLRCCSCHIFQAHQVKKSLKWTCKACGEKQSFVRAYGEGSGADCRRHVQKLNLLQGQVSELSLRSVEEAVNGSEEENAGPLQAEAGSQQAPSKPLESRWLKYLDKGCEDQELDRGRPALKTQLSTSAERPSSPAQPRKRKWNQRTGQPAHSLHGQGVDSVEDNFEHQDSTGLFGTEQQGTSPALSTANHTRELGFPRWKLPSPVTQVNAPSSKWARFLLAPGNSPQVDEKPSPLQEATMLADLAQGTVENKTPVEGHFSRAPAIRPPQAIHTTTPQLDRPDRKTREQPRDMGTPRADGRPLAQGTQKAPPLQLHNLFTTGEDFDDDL
# UniProt Q9D273: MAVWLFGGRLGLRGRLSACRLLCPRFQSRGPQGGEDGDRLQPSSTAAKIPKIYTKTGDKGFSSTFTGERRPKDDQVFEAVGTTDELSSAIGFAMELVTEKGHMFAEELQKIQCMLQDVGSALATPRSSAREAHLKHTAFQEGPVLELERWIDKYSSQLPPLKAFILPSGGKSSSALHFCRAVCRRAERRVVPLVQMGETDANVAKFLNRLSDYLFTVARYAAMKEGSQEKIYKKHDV
# UniProt Q9D1C9: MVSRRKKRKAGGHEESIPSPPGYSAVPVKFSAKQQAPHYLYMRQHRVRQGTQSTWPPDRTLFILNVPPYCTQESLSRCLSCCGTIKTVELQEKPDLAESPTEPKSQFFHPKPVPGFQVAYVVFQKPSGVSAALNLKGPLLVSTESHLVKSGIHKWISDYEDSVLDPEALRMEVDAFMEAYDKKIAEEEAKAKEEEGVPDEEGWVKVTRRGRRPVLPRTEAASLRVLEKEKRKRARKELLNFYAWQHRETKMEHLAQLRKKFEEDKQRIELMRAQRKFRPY
# UniProt Q9D8U2: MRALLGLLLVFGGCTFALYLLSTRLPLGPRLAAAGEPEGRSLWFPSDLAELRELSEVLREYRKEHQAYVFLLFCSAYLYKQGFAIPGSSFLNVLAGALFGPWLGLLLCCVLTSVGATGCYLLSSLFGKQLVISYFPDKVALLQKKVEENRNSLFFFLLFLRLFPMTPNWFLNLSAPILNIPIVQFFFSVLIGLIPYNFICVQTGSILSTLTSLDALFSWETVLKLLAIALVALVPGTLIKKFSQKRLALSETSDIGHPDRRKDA
# UniProt Q9D379: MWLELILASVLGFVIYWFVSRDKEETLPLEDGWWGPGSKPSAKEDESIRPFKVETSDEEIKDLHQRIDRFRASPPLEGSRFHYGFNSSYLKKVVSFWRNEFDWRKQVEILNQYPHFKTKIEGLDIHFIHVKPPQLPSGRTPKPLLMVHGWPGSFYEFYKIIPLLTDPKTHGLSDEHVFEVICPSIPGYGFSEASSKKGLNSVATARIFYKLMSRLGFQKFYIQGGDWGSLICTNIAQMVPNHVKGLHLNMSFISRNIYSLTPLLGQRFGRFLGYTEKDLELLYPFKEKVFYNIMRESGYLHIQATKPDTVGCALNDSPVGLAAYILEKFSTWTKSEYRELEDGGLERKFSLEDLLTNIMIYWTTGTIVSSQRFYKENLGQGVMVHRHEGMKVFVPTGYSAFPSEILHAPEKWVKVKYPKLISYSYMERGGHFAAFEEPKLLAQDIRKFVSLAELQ
# The other results are listed elsewhere or left out. Small differences around the control level are noise.
# Compound: CN[C@@H]1C[C@H]2O[C@@](C)([C@@H]1OC)n1c3ccccc3c3c4c(c5c6ccccc6n2c5c31)C(=O)NC4 [staurosporine]
# Assay: log2 fold change of tryptic peptide abundance, ligand vs vehicle (limited proteolysis) (log2 ratio); higher = more trypsin-susceptible (destabilized)
# Conditions: ligand concentration: 20 uM; sample: mouse liver crude lysate; replicate design: treated separately
row,Target,log2 fold change
1,"UniProt Q9D6I7 (peptide sequence: SLCAGAWLR, peptide start residue: 4)",0.207
2,"UniProt Q9D906 (peptide sequence: WLPTVIAASKR, peptide start residue: 478)",0.278
3,"UniProt Q9D787 (peptide sequence: KKTQHQVDPEAK, peptide start residue: 450)",-0.535
4,"UniProt Q9D3A8 (peptide sequence: DGGSHIDSTVSPHPQEPMLTASPR, peptide start residue: 241)",-0.356
5,"UniProt Q9D7A6 (peptide sequence: QEDGSLCLVQFPSRK, peptide start residue: 88)",0.0299
6,"UniProt Q9D6Z0 (peptide sequence: RYEYDHWDAAIHGFR, peptide start residue: 60)",0.487
7,"UniProt Q9D735 (peptide sequence: KGGPGPTLSFVGK, peptide start residue: 103)",0.301
8,"UniProt Q9D6T1 (peptide sequence: SLITSNMGAVK, peptide start residue: 238)",-0.0878
9,"UniProt Q9D7Z3 (peptide sequence: HFIHSCLYGSDSKR, peptide start residue: 187)",-0.245
10,"UniProt Q9D554 (peptide sequence: IQTDFEK, peptide start residue: 213)",-0.18
11,"UniProt Q9D1G2 (peptide sequence: LSGPLKEEYAR, peptide start residue: 43)",0.275
12,"UniProt Q9D7E4 (peptide sequence: AYVAMNER, peptide start residue: 68)",-0.0806
13,"UniProt Q9D8N0 (peptide sequence: QVLEPSFR, peptide start residue: 174)",0.157
14,"UniProt Q9D819 (peptide sequence: VFLKNEK, peptide start residue: 19)",-0.183
15,"UniProt Q9D6K5 (peptide sequence: VQHRLPVQNGPIVHR, peptide start residue: 96)",-0.912
16,"UniProt Q9D1P2 (peptide sequence: KPPITVDSVCLK, peptide start residue: 433)",0.193

# Taken from above (two entries):
row,Target,log2 fold change
6,"UniProt Q9D6Z0 (peptide sequence: RYEYDHWDAAIHGFR, peptide start residue: 60)",0.487
7,"UniProt Q9D735 (peptide sequence: KGGPGPTLSFVGK, peptide start residue: 103)",0.301

# Next entries.

row,Target,log2 fold change
1,"UniProt Q9D3R9 (peptide sequence: GARGPPTPGR, peptide start residue: 64)",-0.286
2,"UniProt Q9D7M1 (peptide sequence: LLLWAQNELDQKK, peptide start residue: 198)",-0.0924
3,"UniProt Q9D7V1 (peptide sequence: KTQSLELANSLK, peptide start residue: 114)",0.637
4,"UniProt Q9D650 (peptide sequence: AGGEVPAGTQPPQQQYYLK, peptide start residue: 228)",0.365
5,"UniProt Q9D5V6 (peptide sequence: KEMEQLVLDKK, peptide start residue: 306)",-0.176
6,"UniProt Q9D937 (peptide sequence: AAMEVEAPSK, peptide start residue: 84)",-0.143
7,"UniProt Q9D4H4 (peptide sequence: AGGEPSPAQPVCK, peptide start residue: 302)",-1.2
8,"UniProt Q9D7B6 (peptide sequence: FCPPLCTMEK, peptide start residue: 143)",0.131
9,"UniProt Q9D824 (peptide sequence: YREYAER, peptide start residue: 494)",0.212
10,"UniProt Q9D1F5 (peptide sequence: AYGEGSGADCR, peptide start residue: 43)",0.3
11,"UniProt Q9D273 (peptide sequence: WIDKYSSQLPPLK, peptide start residue: 150)",0.18
12,"UniProt Q9D7H3 (peptide sequence: AFVAGVLPLKVAK, peptide start residue: 196)",-0.443
13,"UniProt Q9D1C9 (peptide sequence: ELLNFYAWQHR, peptide start residue: 237)",-0.269
14,"UniProt Q9D8U2 (peptide sequence: LALSETSDIGHPDR, peptide start residue: 247)",0.0564
15,"UniProt Q9D379 (peptide sequence: KFVSLAELQ, peptide start residue: 447)",-0.504
